The results in this text go back to PubChem BioAssay AID1347426 (Functional Genomics Laboratory (NCATS/FGL), 2020).

The whole screen tested about 31,000 sequences, of which about 1,400 (4.5%) were called active.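 Rule for the calls: active = median seed-adjusted z-score above 1 or below -1; inactive = the rest.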 This is one part of the list.

A short description of this experiment: Novel Modifiers of Survival Motor Neuron (SMN) Protein: Gene Identification via Genome-wide siRNA Screen.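 Note: luminescence tracks full-length SMN protein made from the SMN2 reporter.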 Particulars: HEK293T SMN2-luciferase reporter, siRNA knockdown, 72 h; actives lie on both sides. The method, boiled down: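 Steps: spot 1 pmol siRNA, add Lipofectamine RNAiMax in serum-free DMEM, seed HEK293T SMN2–luciferase reporter cells; incubate 72 h at 37 °C; add ONE-Glo; normalize luminescence to control siRNA, log10, MAD. Candidates: |MAD| > 1.0.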
GACAUAUCCUUGUUCUACATT against XRCC6: the median seed-adjusted z-score was inactive: 0.
Take CCAAGGGAGUGACCUAUUUTT against SDK1: the median seed-adjusted z-score was inactive: 0.604.
The value for GGAGGAGUCCCUCAACUUATT against ETV7 was inactive: -0.00772; that for CCCAGGUCAUCAUCCUGAATT against EEF1A2 was inactive: -0.64.
In the case of GGCUAUAUCAGGUUAUGAATT against SLC27A6, the median seed-adjusted z-score was inactive: -0.172.
The value for CAUUCACGGUUUCAACUAUTT against RNF160 was inactive: -0.163.
To CAAUGAUCCAAUCCACGAATT against IQGAP1 belongs inactive: -0.615.
To GAGUGAUUCUAGCCUCUAATT against SEC61A1 belongs inactive: 0.312; to UCCAAUUCAUCUUAUCAAATT against MOGAT1, inactive: 0.293.
Turning to CAGUGGGCGUGAUCAUGUATT against PRKD2, the median seed-adjusted z-score is inactive: 0.00493.
The value for CAAGCGUGAUGUGACCCUUTT against PPP2R2B was inactive: -0.252.
With GGUUCCGAGUUGAGACAAATT against NAAA, the median seed-adjusted z-score was inactive: -0.137.
To GUCUUUGCAUCCUAGAUAATT against UNC5D belongs inactive: -0.132; to CAUUCAUAAUGGACGGGAATT against DHDDS, inactive: 0.0122.
To GAUUAUACCCAGACAUACATT against SLC16A4 belongs inactive: 0.341.
The value for ACUCAACUCUGAUACUCCATT against DMRTC2 was inactive: 0.
In the case of GCGUGUGAAUUAUGCGGGATT against ZNF509, the median seed-adjusted z-score is inactive: 0.
To AGAUGAACGAUGACCACAATT against PPFIA3 belongs inactive: -0.0669.
The value for CACCAAAGUUUGACUUAUUTT against LARP4 was inactive: -0.701; that for GAAUUCAUACGCAAGAAAATT against ZNF302 was inactive: 0.498; that for ACUUAUUCGGGAUAAAGUATT against ELAVL1 was inactive: 0.316.
Consider GCUCGAACCUUGUUCAACATT against ZNF780B, for which the median seed-adjusted z-score is inactive: -0.332.
The value for GGAAAGAUGCGACCUAGAATT against MEFV was inactive: 0; that for GCAUCACGUGUAUUUAUAATT against CHSY1 was inactive: 0.247.
Consider CACGCAGAGUUACCGAAAATT against SPEN, for which the median seed-adjusted z-score was active: -1.69.
The value for CCUACUUUCUCACUAUCCATT against HTR2B was inactive: -0.325; that for CGACAACAGGGCUCUAUUATT against RBM5 was inactive: -0.289; that for GCUUUGUCCCUAAUUUCCATT against GPX3 was inactive: 0.193.
Take GACUGCAGUUGGUCUUUCATT against DIABLO: the median seed-adjusted z-score was inactive: 0.913.
The value for GAACAACCCUAACCCAAGATT against ITGAM was active: -1.56; that for GGCCGUGCAGAACAAAGUATT against RFX5 was inactive: 0.432; that for GAAUCGACGUAAUUCCAGUTT against N-PAC was inactive: 0.0542.
Turning to AAACCACAAGCAUCGAGAATT against DMBX1, the median seed-adjusted z-score was inactive: -0.207.
To CCUUAUACAUGUAACAUAUTT against ZNF454 belongs inactive: 0.
The value for GCAACAGAAUCGAGCAAGATT against MFRP was inactive: -0.209.
The value for GGCUUACACGGACAUCAAATT against GSK3A was inactive: 0.248.
Consider GGAUAGCUGUGGUUGCAUUTT against THNSL1, for which the median seed-adjusted z-score was inactive: -0.176.
To AGUCCAACGAGAAAGCUGATT against SAA4 belongs inactive: 0.104; to CCACCAACCUUUAAGCAAATT against EREG, inactive: 0.29.
To CAGACUACCUUAACGAUUUTT against IKZF5 belongs inactive: 0.399; to CAAGGAUACCUACAAAUUATT against BHLHB3, inactive: -0.00972.
The value for GUAUCGUUGGUGGAUAUGATT against LNX2 was inactive: 0.
Regarding GCAGCUACCAAAACGUCUATT against ENDOG, the median seed-adjusted z-score was inactive: -0.336.
As for UGAGUACUGUAGUACAGAATT against KLRB1, the median seed-adjusted z-score was inactive: -0.44.
UCAUCUACGGCAACACGUUTT against GNAT1: the median seed-adjusted z-score is inactive: -0.188.
For the sequence GUACCUCUACUAGAUCUAATT against THNSL1, the median seed-adjusted z-score was inactive: -0.176.
The value for CAGUUACUAUAAAAACCGATT against ZNF711 was inactive: 0.254.
With GGUUGGUACGUGUCAACGATT against SLC27A4, the median seed-adjusted z-score was inactive: 0.119.
To CCUGCCCAAUGUGACCUUUTT against MRC2 belongs active: -1.34.
To GGAAUAUAAUAAGCGAAGATT against TAOK1 belongs inactive: -0.0533.
To CGAUGGUAUUGACUAAGUUTT against HSPA1L belongs active: -1.27; to CGAGAACGCAUGCUAAAAATT against ZNF556, inactive: 0.
Turning to GCACCUCAUUUGCCGAAUATT against DNMT1, the median seed-adjusted z-score is inactive: 0.185.
The value for CGCAUUGCUUACUUACAAATT against PCDHA10 was inactive: 0.0404; that for AAACUUCGCUUCCGAAAAATT against ZNHIT1 was inactive: -0.497.
The value for CGGUGGUGAAUGAAAGUCATT against FKBP14 was inactive: -0.455; that for AGGUCCGCGUUAAAUGCAATT against UBL5 was inactive: -0.706; that for GACCUGGUCUAAAACGAAATT against BLVRA was inactive: 0.212.
For the sequence CUACCUCCAUUGACCCUGATT against PEX5, the median seed-adjusted z-score is inactive: -0.0414.
The value for CAAUCCAGAGUAACACUAUTT against PCK2 was inactive: 0.318; that for GAGUGUUAGUGAGAAGAUATT against PEX12 was inactive: -0.129; that for GAACCAUGCAAGAUAUUGUTT against PCGF3 was inactive: 0.876.
The value for CAAGUGGGCUGAGUACCAUTT against PHPT1 was active: 1.27.
The value for GCUGUACCGUGGGCUUCUATT against ATG4D was inactive: -0.216; that for CCAGGUAUUUUUAUAACAATT against TFPI was inactive: -0.0076.
Turning to CACCGACACCAGACCAGAATT against ZP3, the median seed-adjusted z-score was inactive: 0.495.
The value for GCAUAUGGACAAACCGGAATT against KIF3A was inactive: 0.119; that for UCCCGCUUCCUUAUCCUUATT against CDK5R2 was inactive: -0.0965.
To CAAACUACGGGAACUUGAATT against IRX2 belongs inactive: -0.409; to GCAGAGUUUCGUACAAGGATT against KPNA6, active: -1.54; to AGAACGCGCCCGAGAAGAATT against FOXC2, inactive: -0.792.
Take AAACGAUGUUGAUGUCCAATT against ATP6V1E1: the median seed-adjusted z-score is inactive: -0.312.
To AGUGCACUCUGGACCCAGATT against ACSBG1 belongs inactive: 0.113; to GAUCCUCUCUGAAUCGGCATT against FAM48A, inactive: -0.506; to GCCCAUAUACAUUCUGCAATT against GUCY1B3, inactive: -0.19.
The value for GGUCCAAGAUCAAACCCGATT against GLI3 was inactive: 0.143.
To GGAUGAAGGUUUUGGUAAATT against ZNF165 belongs inactive: 0.602.
Take GGACAGGAGCGGUAUCACATT against RAB5C: the median seed-adjusted z-score was inactive: -0.529.
The value for CAAUUACGAAUAGAAUUGATT against WEE1 was active: -4.05; that for GGCUUUUAAGACUAAGGAATT against TRIM69 was inactive: 0.214.
The value for CCUUUAGUGAGGCAAAGAATT against ZBTB40 was inactive: 0.187.
The value for CGCUGAAGUUUGUCCCUAATT against SEPX1 was inactive: -0.0545.
CUUCCACUCAAGAAUCGUATT against BACH1: the median seed-adjusted z-score was inactive: -0.404.
The value for GGAAAAACCAACCAAGUUATT against RUFY1 was inactive: 0.119.
In the case of GGAGCUUCCCUAUAGUGAATT against HDAC3, the median seed-adjusted z-score was inactive: 0.579.
With GCCUAUUAGUAAUGCUGAUTT against CTDSPL, the median seed-adjusted z-score was inactive: 0.43.
The value for AAAUCCGUCCUGUUCCAUATT against LARGE was inactive: -0.436; that for CGCCUUUAUGGACCACAUATT against NR2F2 was inactive: 0.129; that for GCCUUUACAAGAUAGAGUUTT against ZKSCAN3 was inactive: 0.
Consider CCAAUACAAUCGGAUCUCUTT against NRIP2, for which the median seed-adjusted z-score is inactive: 0.415.
In the case of CACUAACUGUUUCGAAUGATT against CAPZA1, the median seed-adjusted z-score was inactive: -0.0237.
The value for CCCGUUCUACUAUGACUAUTT against FXYD2 was inactive: -0.383; that for GCUCCUUUAGGUUAUGAUATT against ASH2L was inactive: -0.464; that for CCUUCAAGGUGUGCAAGUATT against ZNF420 was inactive: -0.5.
To CGUUUGUACGGAAUGAUAATT against PPP2R3B belongs inactive: 0.
The value for GCAGGACGUAUGCAAGACATT against CHST5 was inactive: 0.0149; that for GAUCGUUACUCGCAUCAAUTT against MYO1D was inactive: -0.201.
Take AGGUCAGGGUUACAGCUUUTT against MPP2: the median seed-adjusted z-score is inactive: 0.0496.
To GGUUCAUUGCAACACCCAUTT against HSD17B8 belongs inactive: 0.411; to CCAAGGAUAUUUCAGCUAATT against USP37, inactive: 0.0907; to CCACGAAGUUUCGAACGGATT against PTPN14, inactive: 0.
The value for CCAGCGCAACAAAGGAAAATT against HMX1 was active: 1.3.
As to GAUUGAUGCUGAUGUAACATT against DLD, the median seed-adjusted z-score was inactive: 0.377.
To AGACCAUCCACAACGAUUATT against CA6 belongs inactive: 0.349; to CGGACUCACCAUAUCCUUUTT against HIPK2, inactive: 0.156.
The value for UGGUGAAAAUUACAUCUGATT against CIP29 was active: -1.18; that for CGUCAUCACCCUCAACUAUTT against NLGN3 was inactive: -0.0279; that for CGAUGUGGGCUGCAACAAATT against PURB was inactive: 0.
